Reference: US8999956B2, “N-[(het)arylalkyl)] pyrazole(thio)carboxamides and their heterosubstituted analogues” (Bayer Intellectual Property GmbH, priority 2010, dated 2015)
For part of these data: At least one read-out could not be matched to a standard name with certainty. Some entries share one result that the patent states for a list of compounds.

Columns and labels:
[1] = tested on: Puccinia triticina; experiment: In vivo preventive test on Puccinia triticina (wheat); conditions: 500 ppm of active ingredient, evaluated 8 days after inoculation
[2] = tested on: Botrytis cinerea; experiment: In vivo preventive test on Botrytis cinerea (beans); conditions: 500 ppm of active ingredient, lesion size 2 days after inoculation
Procedure: Solvent: 24.5 parts by weight of acetone • 24.5 parts by weight of N,N-dimethylacetamide
Emulsifier: 1 part by weight of alkylaryl polyglycol ether
To produce a suitable preparation of active compound, 1 part by weight of active compound is mixed with the stated amounts of solvent and emulsifier, and the concentrate is diluted with water to the desired concentration.
To test for preventive activity, young plants are sprayed with the preparation of active compound. After the spray coating has dried on, 2 small pieces of agar covered with growth of Botrytis cinerea are placed on each leaf. The inoculated plants are placed in a darkened chamber at 20° C. and a relative atmospheric humidity of 100%.
2 days after the inoculation, the size of the lesions on the leaves is evaluated. 0% means an efficacy which corresponds to that of the untreated control, while an efficacy of 100% means that no disease is observed.

CC(COc1ccc(Cl)cc1Cl)N(C(=O)c1cn(C)nc1C(F)F)C1CC1 (stereo not drawn) [18 from WO-2010/012795, N-cyclopropyl-N-[1-(2,4-dichlorophenoxy)propan-2-yl]-3-(difluoromethyl)-1-methyl-1H-pyrazole-4-carboxamide, reference compound]
Efficacy [1]: 30%

Cn1cc(C(=O)N(C2CC2)C2CCCC(c3ccccc3)C2)c(C(F)F)n1 (stereo not drawn) [compound CMP3, N-cyclopropyl-3-(difluoromethyl)-1-methyl-N-(3-phenylcyclohexyl)-1H-pyrazole-4-carboxamide, reference compound]
Efficacy [2]: less than 5%

Cc1nn(C)c(F)c1C(=O)N(CC1CCCCC1c1ccccc1)C1CC1 (stereo not drawn) [compound CMP9, N-cyclopropyl-5-fluoro-1,3-dimethyl-N-[(2-phenylcyclohexyl)methyl]-1H-pyrazole-4-carboxamide, reference compound]
Efficacy [2]: less than 15%

Cc1nn(C)c(F)c1C(=O)N(C1CC1)C1CCCC(c2ccccc2)C1 (stereo not drawn) [compound CMP2, N-cyclopropyl-5-fluoro-1,3-dimethyl-N-(3-phenylcyclohexyl)-1H-pyrazole-4-carboxamide, reference compound]
Efficacy [2]: less than 5%

Cn1cc(C(=O)N(C2CC2)C2CCCCC2Cc2ccccc2)c(C(F)F)n1 (stereo not drawn) [16 from WO-2010/094666, N-(2-benzylcyclohexyl)-N-cyclopropyl-3-(difluoromethyl)-1-methyl-1H-pyrazole-4-carboxamide, reference compound]
Efficacy [1]: 60%

Cn1cc(C(=O)N(CC2CCCCC2c2ccccc2)C2CC2)c(C(F)F)n1 (stereo not drawn) [compound CMP1, N-cyclopropyl-3-(difluoromethyl)-1-methyl-N-[(2-phenylcyclohexyl)methyl]-1H-pyrazole-4-carboxamide, reference compound]
Efficacy [2]: less than 15%
